Data from publication doi:10.1101/2024.05.15.594354.

Sequences of proteins named here, by UniProt entry; tags and fusion partners are left off. A change or cut given only in a name is not applied to a line headed by its entry. Residues count along the entry.
UniProt P02769, residues 25-607: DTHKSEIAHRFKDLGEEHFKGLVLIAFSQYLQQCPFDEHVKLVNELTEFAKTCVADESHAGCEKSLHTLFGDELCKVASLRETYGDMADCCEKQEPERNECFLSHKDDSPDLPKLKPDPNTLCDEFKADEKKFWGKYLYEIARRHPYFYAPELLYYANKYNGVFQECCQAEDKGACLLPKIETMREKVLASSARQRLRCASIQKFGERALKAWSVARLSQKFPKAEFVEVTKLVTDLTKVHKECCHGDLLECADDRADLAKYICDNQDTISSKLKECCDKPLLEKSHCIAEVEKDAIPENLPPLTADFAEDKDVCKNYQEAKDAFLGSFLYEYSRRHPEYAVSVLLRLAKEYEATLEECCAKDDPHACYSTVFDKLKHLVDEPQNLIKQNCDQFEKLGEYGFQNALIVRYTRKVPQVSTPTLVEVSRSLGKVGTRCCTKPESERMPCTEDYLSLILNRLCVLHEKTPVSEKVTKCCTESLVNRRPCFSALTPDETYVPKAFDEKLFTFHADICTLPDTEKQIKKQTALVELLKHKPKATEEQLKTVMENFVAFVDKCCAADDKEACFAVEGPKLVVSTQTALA
UniProt Q9HCJ2: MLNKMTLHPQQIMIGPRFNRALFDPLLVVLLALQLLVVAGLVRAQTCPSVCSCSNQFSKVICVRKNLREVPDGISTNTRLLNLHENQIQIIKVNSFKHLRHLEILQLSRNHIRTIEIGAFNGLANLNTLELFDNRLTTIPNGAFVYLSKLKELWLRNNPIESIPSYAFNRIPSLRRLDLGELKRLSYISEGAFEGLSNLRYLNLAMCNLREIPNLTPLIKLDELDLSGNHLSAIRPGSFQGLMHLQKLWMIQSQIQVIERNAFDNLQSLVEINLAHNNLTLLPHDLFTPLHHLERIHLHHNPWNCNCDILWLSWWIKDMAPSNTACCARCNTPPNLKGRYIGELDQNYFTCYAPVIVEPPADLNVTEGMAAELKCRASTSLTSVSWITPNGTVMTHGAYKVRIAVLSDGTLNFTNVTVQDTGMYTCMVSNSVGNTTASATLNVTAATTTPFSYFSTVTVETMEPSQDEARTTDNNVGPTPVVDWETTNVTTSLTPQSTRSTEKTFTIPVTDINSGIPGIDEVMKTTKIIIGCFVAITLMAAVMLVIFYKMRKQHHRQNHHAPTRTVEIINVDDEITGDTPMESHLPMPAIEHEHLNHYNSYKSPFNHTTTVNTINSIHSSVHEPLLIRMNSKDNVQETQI

Legend:
Experiment in all cases: ELISA
[1] = target: Bovine Serum Albumin (BSA) (bovine) (UniProt P02769)
[2] = target: T1, Netrin G1 (NetG1), recombinant (UniProt Q9Y2I2)
T1 sequence: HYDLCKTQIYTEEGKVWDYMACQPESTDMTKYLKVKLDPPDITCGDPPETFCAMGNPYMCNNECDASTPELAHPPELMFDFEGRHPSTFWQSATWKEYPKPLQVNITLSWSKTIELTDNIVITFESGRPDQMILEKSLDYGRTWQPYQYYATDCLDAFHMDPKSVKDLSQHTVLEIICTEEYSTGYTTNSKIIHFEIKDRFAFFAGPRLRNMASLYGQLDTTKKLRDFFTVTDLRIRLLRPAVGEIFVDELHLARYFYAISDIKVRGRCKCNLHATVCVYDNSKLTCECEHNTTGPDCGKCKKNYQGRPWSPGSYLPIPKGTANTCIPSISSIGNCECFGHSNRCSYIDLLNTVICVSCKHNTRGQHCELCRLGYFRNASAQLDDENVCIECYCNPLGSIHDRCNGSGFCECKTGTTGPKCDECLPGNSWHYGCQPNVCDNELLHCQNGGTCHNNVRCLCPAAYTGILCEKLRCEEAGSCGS

[3] = target: T2, anti-NGL-1 peptide (NPYMSNNE) (human)
T2 sequence (peptide): NPYMSNNE

- binding [1]: no binding (tested: 50 nM)
- binding [2]: binds
- binding [3]: binds
Substance: Netrin G1 Ligand (NGL-1), recombinant (from UniProt Q9HCJ2) (receptor)

No constants are given. Whether binding was seen depends on the method and setting. For part of these data: Binding calls can cover weak binding; strength is not graded here.
